# Laboratory results taken from PubChem BioAssay AID504467 (National Center for Advancing Translational Sciences (NCATS), 2011).
# Among all 330,000 compounds or so, about 7,700 (2.3%) were called active. The shares of active, inactive and inconclusive entries below differ from those in the screen. Calls follow the shape of the dose curve; as a rule, active = well fitted inhibition curve with a large enough effect; inconclusive = small, poorly fitted or top-dose-only effect, or effect the other way; inactive = flat fitted curve, though single readings scatter. Potencies of inconclusive entries are doubtful fits and often do not repeat.
# Assay: qHTS screen for small molecules that inhibit ELG1-dependent DNA repair in human embryonic kidney (HEK293T) cells expressing luciferase-tagged ELG1; also: nearly all actives have a fitted effect of over 55% in size
# Settings: HEK293T ELG1-luciferase reporter, luminescence, 16 h, DNA damage induced by 5-fluorouridine; activity change, negative = inhibition: at 46.1 µM (top of the series)
# Procedure, shortened: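 HEK293T cells expressing luciferase-tagged ELG1 (2,000/well) received 5-Fluorouridine plus compound or DMSO for 16 hr at 37 °C. Luciferase was read by ONE-Glo luminescence after 30 min at room temperature.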
# % is scaled to controls: 0 for no effect and ±100 for the full control effect; potency is read from the fitted curve at half-maximal effect.
SMILES,Potency,"activity change, negative = inhibition"
COc1ccc(C(=O)C(C)Oc2cccc(NC(=O)c3cccc([N+](=O)[O-])c3)c2)cc1 (stereo not given),active: 14.6 µM,–
CCS(=O)(=O)c1ccc(O)c(NC(=O)COc2ccc(OC)cc2)c1,–,inactive: 11.4%
CCOC(=O)Cc1csc(NC(=O)NC2(C(F)(F)F)Oc3ccc(Cl)cc3O2)n1 (stereo not given),–,inactive: -13.9%
O=C1CC(c2ccc(F)cc2)CC(O)=C1C=NCCN1CCN(C(=O)Nc2ccccc2)CC1 (stereo not given),–,inactive: 7.65%
O=C1CC(Sc2ccc(Cl)cc2)C(=O)N1Cc1ccncc1 (stereo not given),–,inactive: -14.8%
O=C(CSc1nnnn1-c1ccc(Cl)cc1)Nc1cccnc1Cl,–,inactive: -0.475%
Cc1cc(OCC(=O)Nc2ccncc2)ccc1Cl,–,inactive: -26.4%
Cc1ccc(OCc2cccc(S(=O)(=O)N(C)C)c2)c([N+](=O)[O-])n1,–,inactive: -21%
COc1ccc2[nH]c3c(c2c1)CCN1C(=O)C(CC(=O)NCc2ccco2)C[C@H](C(=O)N2CCOCC2)[C@@]31C (stereo not given in full),"inconclusive: 23.1 µM [activator, single point]",–
O=C(CSc1ccc(Cl)cc1)N1CCN(c2c(Cl)cccc2[N+](=O)[O-])CC1,"inconclusive: 23.1 µM [inhibitor, single point]",–
COc1ccc(N/C=C\C(=O)c2ccc3ccccc3c2)cc1,"inconclusive: 3.26 µM [activator, full curve]",–
Clc1ccc(Cn2cnc3ccccc32)cc1,"inconclusive: 20.6 µM [inhibitor, partial curve, poor fit]",–
COC(=O)CC1C(=O)NC2CCCCC2N1C(=O)CCl (stereo not given),"inconclusive: 4.11 µM [activator, single point]",–
O=C(Nc1nccs1)c1ccc(N2CCOCC2)c([N+](=O)[O-])c1,"inconclusive: 9.2 µM [activator, partial curve]",–
CCCOc1ccc2[nH]c(C(=O)N/N=C/c3cc(OC)c(OC)c(OC)c3)cc2c1,"inconclusive: 10.3 µM [inhibitor, partial curve, poor fit]",–
C[C@H](CO)N1C[C@H](C)[C@@H](CN(C)C(=O)Nc2ccccc2)Oc2ccc(NC(=O)CCC(F)(F)F)cc2C1=O,–,inactive: 16.4%
COC(=O)C1=C(C)N(c2cc(C)cc(C)c2)/C(=C/c2ccc(O)cc2)C1=O,"inconclusive: 18.3 µM [inhibitor, single point]",–
N#Cc1cccc(NC(=O)COc2ccc(-n3ccnc3)cc2)c1,active: 13 µM,–
CN(C)/C=C1\C(=O)N(c2ccc(Cl)c(Cl)c2)CS1(=O)=O,"inconclusive: 2.31 µM [activator, full curve]",–
O=C(CSc1nnc(-c2ccccc2O)o1)Oc1ccc(OCc2ccccc2)cc1,"inconclusive: 29.1 µM [activator, single point]",–
CCCc1nnc(NC(=O)Nc2ccccc2OC)s1,"inconclusive: 20.6 µM [activator, partial curve]",–
CN(C)C(=O)CCc1ccc2c3c([nH]c2c1)[C@]1(C)[C@@H](C(=O)N2CCCCC2)C[C@H](CC(=O)NCCN2CCOCC2)C(=O)N1CC3,"inconclusive: 18.3 µM [activator, single point]",–
O=C(c1ccccc1Nc1ccc(SC(F)F)cc1)N1CCCCCC1,"inconclusive: 29.1 µM [inhibitor, single point]",–

# One compound at a time, as listed above:
# CCCOc1ccc2[nH]c(C(=O)N/N=C/c3cc(OC)c(OC)c(OC)c3)cc2c1 in the list: Potency: inconclusive: 10.3 µM [inhibitor, partial curve, poor fit]
# CCOC(=O)Cc1csc(NC(=O)NC2(C(F)(F)F)Oc3ccc(Cl)cc3O2)n1 (stereo not given) in the list: activity change, negative = inhibition: inactive: -13.9%

# Later entries:

SMILES,Potency,"activity change, negative = inhibition"
CN(Cc1nc2ccccc2c(=O)[nH]1)Cc1cc(=O)oc2ccc3ccccc3c12,"inconclusive: 29.1 µM [inhibitor, single point]",–
CC(C)CC1=C/C(=C/c2ccc(-c3ccccc3)o2)C(=O)O1,–,inactive: 20.7%
CCC1ON(C(C)C)C2c3nc4ccccc4n3CC12 (stereo not given),"inconclusive: 16.4 µM [activator, partial curve, poor fit]",–
CC(=O)N1c2ccc(S(=O)(=O)NCCC(=O)N(C)Cc3ccccc3)cc2CC1C (stereo not given),–,inactive: -6.78%
CCOc1ccccc1-n1nnnc1SCC(=O)NC(=O)NCc1ccco1,active: 25.9 µM,–
CCOC(=O)c1ccc2nc(NC(=O)c3cccs3)sc2c1,"inconclusive: 1.84 µM [activator, full curve]",–
CCCCCn1c(=O)[nH]c2cc(C(=O)N3CCN(Cc4ccc5c(c4)OCO5)CC3)ccc2c1=O,active: 0.461 µM,–
Cc1c(OCC(=O)N2CCC(C(N)=O)CC2)ccc2c3c(c(=O)oc12)CCCC3,"inconclusive: 10.3 µM [activator, single point]",–
COc1cc(NC(=O)CCc2nnc3ccc(N4CCC(C)CC4)nn23)cc(OC)c1,"inconclusive: 16.4 µM [inhibitor, single point]",–
CSc1ccccc1NC(=O)C(=O)c1c[nH]c2ccccc12,"inconclusive: 25.9 µM [activator, single point]",–
Nc1nc(CN2CCN(Cc3ccc4c(c3)OCO4)CC2)nc(Nc2ccccc2)n1,"inconclusive: 14.6 µM [inhibitor, partial curve, poor fit]",–
O=c1[nH]c(=S)[nH]c2c1C(c1ccc(Br)cc1)c1c([nH]c(=S)[nH]c1=O)O2,–,inactive: -7.32%
Cc1c(Cl)c([N+](=O)[O-])nn1CC(=O)NCc1ccc(Cl)cc1,–,inactive: -10.2%
Cc1ccc(C)c(S(=O)(=O)N2CCCOC2CNC(=O)C(=O)NCCC2=CCCCC2)c1 (stereo not given),"inconclusive: 29.1 µM [inhibitor, single point]",–
C=C(C)CNC(=S)N1CCN(C(c2ccccc2)c2ccccc2)CC1,"inconclusive: 29.1 µM [inhibitor, single point]",–
COCCSc1ccccc1C(=O)N1CCC(Cc2ccccc2)CC1,active: 23.1 µM,–
COc1ccccc1-c1noc(CCCC(=O)NC2CCCCC2)n1,–,inactive: -3.08%
CC(C)(C)C(=O)Nc1cc(S(=O)(=O)Nc2ccc(Cl)cc2)ccc1Cl,–,inactive: -2.16%
CCOC(=O)C(=Cc1cc(=O)c(OC)co1)C(=O)OCC,active: 5.8 µM,–
CC1(C)CC(=O)c2sc(NC(=O)C3CC3)nc2C1,"inconclusive: 29.1 µM [activator, single point]",–
O=C(/C=C/c1ccc(Cl)cc1Cl)Nc1cccc(S(=O)(=O)NC2=NCCCCC2)c1,"inconclusive: 9.2 µM [activator, partial curve]",–
CC(C)Cc1cc(C(=O)Nc2ccc(F)cc2F)no1,"inconclusive: 18.4 µM [activator, partial curve]",–
